# Values from PubChem BioAssay AID1259254 (NCATS, 2017)
# Aim: 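Finding genes that stop cells copying their DNA twice in one cycle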 (primary screen)
# Cells: human HCT116 colorectal cancer cells
# Reagents: single siRNA against human genes
# Time to read-out: 3 days
# Read-out: 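Imaged Hoechst DNA stain sorts each cell into a cycle phase by DNA amount; per plate, G2 fraction set to 0% for non-targeting and 100% for GMNN siRNA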
# Direction: G2 robust z-score: higher = more G2 cells, more excess DNA replication
# Active means: 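Active siRNAs have a G2 robust z of 5 or more median absolute deviations over the median, which in these data means about 38% or higher of GMNN control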
# In all, the deposit lists about 59,000 reagents; shown is an unselected part. About 1,550 of all reagents (2.6%) count as active. 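G2 share is only a proxy for re-replication; each gene was hit by three separate siRNAs, and active genes were retested.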 Entries without a mark were called inactive. The numbers tell different reagents against one gene apart. Further read-outs or replicates are left out here. The record does not give: the amount of reagent.
gene knocked down,reagent,G2 robust z-score
DUX1 (GeneID 26584),1,-0.305
DUX1 (GeneID 26584),2,-0.881
DUX1 (GeneID 26584),3,-1.23
PIP4P1 (GeneID 90809),1,-0.0729
PIP4P1 (GeneID 90809),2,-0.415
PIP4P1 (GeneID 90809),3,3.12
PITPNC1 (GeneID 26207),1,2.35
PITPNC1 (GeneID 26207),2,-0.676
PITPNC1 (GeneID 26207),3,-0.571
PITPNC1 (GeneID 26207),4,-1.03
PITPNC1 (GeneID 26207),5,1.09
PITPNC1 (GeneID 26207),6,1.43
PIGX (GeneID 54965),1,-0.536
PIGX (GeneID 54965),2,-0.123
PIGX (GeneID 54965),3,1.4
GRAP2 (GeneID 9402),1,-0.501
GRAP2 (GeneID 9402),2,-0.558
GRAP2 (GeneID 9402),3,7.9 (active)
PLEKHS1 (GeneID 79949),1,0.848
PLEKHS1 (GeneID 79949),2,1.1
PLEKHS1 (GeneID 79949),3,0.509
TEX56P (GeneID 404220),1,-0.408
TEX56P (GeneID 404220),2,-0.575
TEX56P (GeneID 404220),3,0.327
PDCD1 (GeneID 5133),1,3.37
PDCD1 (GeneID 5133),2,3.08
PDCD1 (GeneID 5133),3,0.315
GPRC5D (GeneID 55507),1,-0.133
GPRC5D (GeneID 55507),2,0.105
GPRC5D (GeneID 55507),3,-1.28
MGME1 (GeneID 92667),1,-0.00497
MGME1 (GeneID 92667),2,-0.766
MGME1 (GeneID 92667),3,0.388
ZFTA (GeneID 65998),1,0.272
ZFTA (GeneID 65998),2,-0.78
ZFTA (GeneID 65998),3,1.81
LEUTX (GeneID 342900),1,2.75
LEUTX (GeneID 342900),2,-0.055
LEUTX (GeneID 342900),3,0.0693
CEMIP2 (GeneID 23670),1,-0.218
CEMIP2 (GeneID 23670),2,-0.0854
CEMIP2 (GeneID 23670),3,0.415
ADAM21 (GeneID 8747),1,-0.808
ADAM21 (GeneID 8747),2,-0.246
ADAM21 (GeneID 8747),3,-0.315
CD160 (GeneID 11126),1,0.296
CD160 (GeneID 11126),2,0.02
CD160 (GeneID 11126),3,0.47

Active calls, of those listed so far:
gene knocked down,reagent,G2 robust z-score
GRAP2 (GeneID 9402),3,7.9 (active)
